Source: patent publication US20260232826A1 (Mablink Bioscience, priority 2022, published 2026)

Legend:
[1] = general procedure: Fmoc solid-phase peptide synthesis; 2-chlorotrityl; HATU/DIPEA; bromoacetic acid/diisopropylcarbodiimide (sub-monomer); details: whole synthesis, on initial Fmoc-sarcosine loading
[2] = general procedure: Fmoc solid-phase peptide synthesis; Rink amide; HATU/DIPEA; bromoacetic acid/diisopropylcarbodiimide (sub-monomer); details: whole synthesis, on initial Fmoc-sarcosine loading

For NH2-Gly(N3)-PSAR10- COOH, the isolated yield [1] was 14%.
NH2-Gly-(N3)-PSAR10- CONH2 gave an isolated yield [2] of 48%.
